Measurements from patent US20100092460A1.
Where a chain is given by its changes, count along the chain named. No constants are given. Whether binding was seen depends on the method and setting. Some binding calls cover weakened binding; strength is not graded here.

Amino acid sequences for entries named in this document (tags omitted). Residues count along the entry.
UniProt P10147, residues 27-92: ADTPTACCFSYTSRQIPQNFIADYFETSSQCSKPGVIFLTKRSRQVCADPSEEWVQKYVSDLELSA
UniProt P13500, residues 24-99: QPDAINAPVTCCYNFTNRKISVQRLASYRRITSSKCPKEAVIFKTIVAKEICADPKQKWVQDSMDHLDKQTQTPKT

T1: recombinant human CXCL11/I-TAC (human) (UniProt O14625)
T1 sequence (biotinylated in the ELISA; 125I label in the radioligand assays, looked up): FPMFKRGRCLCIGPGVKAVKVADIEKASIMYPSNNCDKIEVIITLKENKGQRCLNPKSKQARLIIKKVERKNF

B1: Nanobody 11D7 (VHH, not shown: small tags and cut ends)
VHH: EVQLVESGGGLVQAGGSLRLSCATSGFTFDDYAIGWFRQAPGKEREGVSILSSSDGSTYYADSVKGRFTISSDNAKNTVYLQMNSLKPEDTAVYYCAAGQGWVIATMTSFRAHREYDYWGQGTQVTVSS
B2: Nanobody 11A4 (VHH, not shown: small tags and cut ends)
VHH: EVQLVESGGGLVQAGGSLRLSCAASGFTLDDYAIGWFRQAPGKEREGISLITSDDGSTYYADSVKGRFTISSDNAKNTVYLQMNSLKPEDTAVYYCAAAQGLLLLSLWVPTQYDYWGQGTQVTVSS
B3: Nanobody 9c2 (VHH, not shown: small tags and cut ends)
VHH: EVQLVESGGGLVQAGGSLRLSCAASGFPFDDYAIGFFRRAPGKEREGVSCLSRSDGSIYSVPSVKGRFTISKDHAKNTVYLQMNNLKPEDTAVYYCAAGDWVRDPCTWYPNDFDSWGQGTQVTVSS
B4: Nanobody 9G2 (VHH, not shown: small tags and cut ends)
VHH: EVQLVESGGGLVQAGGSLRLSCAASGFTFDDYAIGWFRQAPGKEREGVSCISPSDGSTYYADSVKGRFTISSDNAKNTVYLQMNSLKPEDTAVYYCAALYSDYDCPHPSIPHEYDYWGQGTQVTVSS
B5: Nanobody 9E1 (VHH, not shown: small tags and cut ends)
VHH: EVQLVESGGGLVQAGDSLRLACAASGGTFSNYAMGWFRQAPGKEREFVGALRWITRITYYADSVKGRFTISKDNAKNTVYLQMNSLKPEDTAVYYCAAGSPSRLVNMNQYNYWGQGTQVTVSS
B6: Nanobody 9B8 (VHH, not shown: small tags and cut ends)
VHH: EVQLVESGGGLVQPGGSLRLSCVASGINFSRYGLGWYRQVPGGQRELVASITSGGSTNYAESVKGRFTISRDNFKNTVYLQMDNLKPEDTAVYYCSAIGWRYWGQGTQVTVSS
B7: Nanobody 9H2 (VHH, not shown: small tags and cut ends)
VHH: EVQLVESGGGLVQAGGSLRLSCAASGRTFSSYAMGWFRQAPGKEREFVAAISWSAGSTYYADPVKDRFTISRDNAKNTVYLQMNSLKPEDTAVYYCAAAQFRQVGPYWSDYDVPYEYDYWGQGTQVTVSS
B8: Nanobody 9F1 (VHH, not shown: small tags and cut ends)
VHH: EVQLVESGGGLVQAGGSLRLSCAASERTYGMGWFRQAPGKERVFVAAINYSGRSINYSDSVKGRFTISRDNAKNTVYLQMNSLKVEDTAIYYCAADKTLWSISSDRDEYDYWGQGTQVTVSS
B9: Nanobody 9F2 (VHH, not shown: small tags and cut ends)
VHH: B8 VHH with T66I
B10: Nanobody 9D7 (VHH, not shown: small tags and cut ends)
VHH: EVQLVESGGGLVQPGGSLRLSCAASGFAFSTNAMSWVRQAPGKGLEWISTINSGGWRSYADSVKGRFTISRDDGQNTLYLQMNSLKPEDTAVYYCVHQNYRGQGTQVTVSS
B11: Nanobody 9C8 (VHH, not shown: small tags and cut ends)
VHH: EVQLVESGGGLLTTGGSLRLSCTASESIFSGNNMGWFRQAPGKQREWVATVTDGGWRNYAESVKGRFTISRDNAKNTVYLQMNSLKPEDTAVYYCNRVAGWAGPLGSWGQGTQVTVSS
B12: Nanobody 9H8 (VHH, not shown: small tags and cut ends)
VHH: EVQLVESGGGLVQAGGSLRLSCAASGIITSRYAMHWYRQAPGEQRELVAGITSGGSTSYADSVKGRFTISRDNAKNTVYLQMNGLKPEDTAVYYCKVLGFDRWGQGTQVTVSS
B13: Nanobody 9C7 (VHH, not shown: small tags and cut ends)
VHH: B12 VHH with A14P, A33L, H35R, G50D, S58N, A60R, G84S, V97A
B14: Nanobody 9A8 (VHH, not shown: small tags and cut ends)
VHH: EVQLVESGGGLVQPGGSLRLSCAASGSIFINSMGWYRQAPGNEREFVARISSGGSTNYEDSVKGRFTISQDNAKNTVYLQMDSLKPEDTASYVCYAIGGGAVHWGQGTQVTVSS
B15: Nanobody 9A2 (VHH, not shown: small tags and cut ends)
VHH: EVQLVESGGALVQPGGSLRLSCAASGFTFDDYAMSWVRQAPGKGLEWVSAISWNAGTTYYAESIQGRFTISRDNAKNTLYLQMNSLKPEDTAVYYCVQDRLYGSNWSDLLDEYDYWGQGTQVTVSS
B16: Nanobody 9H1 (VHH, not shown: small tags and cut ends)
VHH: EVQLVESGGGLVQAGGSLRLSCAVSGRTFNSRPMGWFRQAPGNDREFVAAMRWSSSSTDYADSVKGRFTMSRDNAKNTVFLQMNSLKPEDTAVYYCAAGPSGGIYYKSPGDYDYWGRGTQVTVSS
B17: Nanobody 9E2 (VHH, not shown: small tags and cut ends)
VHH: EVQLVESGGGLVQPGGSLRLSCAASGFTFSSSSMYWVRQAPGKGLEWVSTINMIGFRSYADSVKGRFTIFRDDAKNTLYLQMNNLKPEDTALYYCARDRGGDVRGQGTQVTVSS
B18: Nanobody 9G7 (VHH, not shown: small tags and cut ends)
VHH: EVQLVESGGGLVQPGGSLRLSCAPSGSILQFNIMGWYRQAPGKQRELVAAITKLGFRNYLDSVKGRFTISTDSAKNTMSLQMNSLKPEDTAVYYCNEVGPGWAPILFDSWGQGTQVTVSS
B19: Nanobody 9D1 (VHH, not shown: small tags and cut ends)
VHH: EVQLVESGGGLVQAGGSLRLSCVASGRTFSSSNMGWFRQAPGKEREFVAAITWSGGWRYYGDSVKGRFTIFRDDAKNTVFLQMNSLKPEDTAVYYCAVVSSGVSGFSNRYDYWGQGTQVTVSS
B20: Nanobody 8C10 (VHH, not shown: small tags and cut ends)
VHH: EVQLVESGGGLVQAGGSLRLSCAASGRSFSSHRMGWFRQAPGKEREFVASISRSGENTYYADSVKGRFTISRDNAKNTVYLQMNSLKSEDTAVYYCAASGGMGISAPNSYAYWGQGTQVTVSS

Biological target: T1, recombinant human CXCL11/I-TAC (human)
Assay: inhibition of 125I-CXCL11 binding to hCXCR3 (HEK293T cells), 10x diluted periplasm; ELISA grade at the label

binding | Binder
binds | B1
binds | B2

Biological target: T1, recombinant human CXCL11/I-TAC (human)
Assay: inhibition of 125I-CXCL11 binding to hCXCR3 (HEK293T cells), 10x diluted periplasm

binding | Binder
binds | B2

Biological target: recombinant human CCL3/MIP1 alpha (human) (UniProt P10147)
Assay: ELISA, periplasmic extract on biotinylated CCL3 on neutravidin, anti-myc detection

binding | Binder
binds | B3
binds | B4
binds | B5
binds | B6
binds | B7
binds | B8
binds | B9
binds | B10
binds | B11
binds | B12
binds | B13
binds | B14
binds | B15
binds | B16
binds | B17
binds | B18
binds | B19

Biological target: T1, recombinant human CXCL11/I-TAC (human)
Assay: ELISA, Nanobody captured by coated anti-myc antibody, biotinylated CXCL11, streptavidin-HRP

binding | Binder
binds | B1
binds | B2

Biological target: recombinant human CCL2/MCP1 (human) (UniProt P13500)
Assay: ELISA, periplasmic extract on coated CCL2, anti-myc detection

binding | Binder
binds | B20
